Tested on: Rat vascular smooth muscle cells
Assay: cells
Assay type: cell-based
Settings: read-out: ID50, inhibition of DNA synthesis
Protocol: DNA synthesis assessed by the uptake of [3H]thymidine: Cells are grown in either 48 or 96 wells plates (Costar, Cambridge, Mass.) at 10^4 and 0.8 10^3 cells per well, respectively, and grown in Dubelcco's modified Eagle's medium (DME, Gibco, Grand Island, N.Y.) supplemented with 10% heat-inactivated calf serum; they are kept at 37° C. in 5% CO2. When they reach confluence, usually between 3 and 4 days, the medium is replaced with DME 0.5% serum to make them quiescent, and mitogenesis assays are performed 24 hours later.
Quiescent cells are exposed to a mitogenic stimulus, such as 10% serum, PDGF (Sigma Co. St. Louis, Mo.), bFGF (Upstate Biotechnologies, Lake Placid, N.Y.), or other appropriate mitogen according to the cell line, and 3 hours 1 later μCi/ml of [3H]thymidine (Dupont, Billerica, Mass.) is added to the wells, and the cells maintained at 37° C./5% CO2 for additional 21 hours. Then the cells are washed 3 times with DME medium and the acid-precipitable radioactivity is extracted with cold 10% TCA (Sigma, Co). After neutralization with 0.3N NaOH (Sigma Co.), aliquots are counted in a Packard Tri-Carb Scintillation counter (Packard Instrument, Downer's Grove, Ill.). […]

In the case of Clc1ccccc1C(c1ccccc1)(c1ccccc1)n1ccnc1 [CLT, clotrimazole], the IC50 is reported as ~1500 nM.

— patent US5358959A, “Methods for treating arteriosclerosis” (President and Fellows of Harvard University, priority 1993, dated 1994)
